Values quoted from earlier work in patent US7691599B2, “Mammalian genes involved in viral infection and tumor suppression” (Zirus, Inc., priority 2002, dated 2010).
The name of at least one read-out is uncertain.

Details: single oral dose of 300 mg V11294A

Structure (SMILES)	time at which plasma concentration reached Cmax [h]
COc1ccc(Cn2cnc(N)c3nc(C(C)C)nc2-3)cc1OC1CCCC1 [V10332, 3-(3-cyclopentyloxy-4-methoxy-benzyl)-8-isopropyl-3H-purin-6-ylamine]	5.9 ± 2.3
CCNc1ncn(Cc2ccc(OC)c(OC3CCCC3)c2)c2nc(C(C)C)nc1-2.Cl [V11294A, 3-(3-cyclopentyloxy-4-methoxybenzyl)-6-ethylamino-8-isopropyl-3H purine hydrochloride]	2.63 ± 0.79
